Measurements published in PubChem BioAssay AID485314 (National Center for Advancing Translational Sciences (NCATS), 2010).
Out of some 340,000 compounds screened, about 4,500 (1.3%) were called active. Inconclusive means that the source gave no clear call. Such entries were picked first, then a sample of the others. Calls come from the whole dose curve; as a rule, active = well fitted inhibition curve with a large enough effect; inconclusive = small, poorly fitted or top-dose-only effect, or another doubt; inactive = no such curve, though single readings can be large or run the other way. Potencies of inconclusive entries are doubtful fits and often do not repeat.

The compounds below were run against DNA polymerase beta (Homo sapiens) (UniProt P06746) (assay: qHTS Assay for Inhibitors of DNA Polymerase Beta). Details: Pol beta primer extension/strand displacement, fluorescence kinetic; activity change, negative = inhibition: at 114 µM (top of the series).
Procedure, shortened: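 Preincubation: enzyme (10 nM) with compound, 15 min, RT. Reaction: substrate added to 50 nM final. Reads: 0 and 10 min. Analysis: normalized, Hill fit.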
% is set by controls: 0 for no effect and ±100 for the full control effect; potency is the fitted concentration of half-maximal effect.

Row | SMILES | Potency | activity change, negative = inhibition
1 | CC(C)c1ccc(NC(=O)c2cc(Br)ccc2Br)cc1 | inconclusive: 5.62 µM [inhibitor, partial curve] | 
2 | COc1ccccc1CNC(=O)Cn1nc(C)n2cccc2c1=O | inactive | 
3 | CC1(OC(=O)CCc2ccccc2)C(=O)C=C2C=C(c3ccsc3)OC=C2C1=O (configuration not stated) | active: 44.7 µM | 
4 | COc1ccc(-c2nc3cnccn3c2NC(C)(C)CC(C)(C)C)cc1O | inconclusive: 89.1 µM [inhibitor, single point] | 
5 | COc1cc(OC)cc(C(=O)NC2CCN(CCCOc3ccccc3)CC2)c1 | inconclusive: 100 µM [inhibitor, single point] | 
6 | N#C/C(=C\c1cccs1)c1nc2ccccc2[nH]1 | inconclusive: 20 µM [inhibitor, full curve, poor fit] | 
7 | O=C1CN(c2ccccc2)C(=S)N1c1ccccc1 | inconclusive: 100 µM [inhibitor, single point] | 
8 | CCC(Sc1nnc2c3ccccc3n(CC)c2n1)C(=O)Nc1ccc(NC(C)=O)cc1 (configuration not stated) | inactive | 
9 | CC(C)(C)n1c(O)c2ccc(C(=O)N=NC(=O)c3ccccc3)cc2c1O | inconclusive: 8.91 µM [inhibitor, single point] | 
10 | Cc1ccc(C2NC(=O)c3n[nH]c(-c4cccs4)c32)cc1 (configuration not stated) | inconclusive: 44.7 µM [inhibitor, single point] | 
11 | c1ccc(CNc2ncnc3ccccc23)cc1 | inactive | 
12 | CC(=O)Nc1nc(-c2ccc(Br)s2)cs1 | inconclusive: 10 µM [inhibitor, full curve, poor fit] | 
13 | O=C(Nc1cccc(Cl)c1)N(Cc1nc2ccccc2c(=O)[nH]1)Cc1cccs1 | inconclusive: 79.4 µM [inhibitor, single point] | 
14 | Nc1ccc(-c2nc3ccc([N+](=O)[O-])cc3[nH]2)cc1 | inconclusive: 63.1 µM [inhibitor, single point] | 
15 | COc1ccc(NC(=O)CN2C(=O)NC3(CCCC3)C2=O)cc1OC | inactive | 
16 | Nc1c(C(=O)NCC2CCCO2)sc(=S)n1-c1ccccc1 (configuration not stated) | inconclusive: 100 µM [inhibitor, single point] | 
17 | COc1ccc(CC(=O)N/N=C\c2cc(Br)c(O)c(Br)c2)cc1 | inconclusive: 89.1 µM [inhibitor, single point] | 
18 | Cc1cc(C)c(OCC(O)CN2CCN(C(=O)c3ccccc3)CC2)c(C)c1 (configuration not stated) | inconclusive: 28.2 µM [inhibitor, full curve] | 
19 | O=C(NCCO)Nc1ccc2nc(-c3ccco3)c(-c3ccco3)nc2c1 | active: 4.47 µM | 
20 | O=c1cc(COc2ccccc2Cl)nc2scc(-c3ccccc3)n12 | inactive | 
21 | NC1=NC(c2ccc(Br)cc2)n2c(nc3ccccc32)N1 (configuration not stated) | inconclusive: 0.316 µM [inhibitor, full curve] | 
22 | c1ccc(N2CCN(c3nc(-c4cccs4)nc4ccccc34)CC2)cc1 | inconclusive: 89.1 µM [inhibitor, single point] | 
23 | O=C1CC(c2ccco2)CC2=C1C=Nc1ccccc1N2 (configuration not stated) | inconclusive: 39.8 µM [inhibitor, single point] | 

Row | SMILES | Potency | activity change, negative = inhibition
24 | Cc1nc2ccccn2c1CN(C)C(=O)C1CCC(=O)N(Cc2cccc(F)c2)C1 (configuration not stated) |  | inconclusive: -53.2% [inhibitor]
25 | Cc1ccc(NC(=O)CSc2nc3ccc(NC(=O)c4ccco4)cc3s2)cc1 | inconclusive: 25.1 µM [inhibitor, single point] | 
26 | Cc1cccc(Oc2cc([N+](=O)[O-])cc3c2C(=O)Nc2ccccc2O3)c1 | inconclusive: 17.8 µM [inhibitor, full curve, poor fit] | 
27 | COc1ccc(CCNC(=O)c2ccc(Cn3c(=O)c4cccn4c4cccnc43)cc2)cc1OC | inactive | 
28 | CS(=O)(=O)Nc1ccc(C(=O)NCCc2ccccc2)cc1 | inconclusive: 0.447 µM [inhibitor, full curve, poor fit] | 
29 | Cc1cccc(NC(=O)CSc2nc(-c3cccs3)nc3cc(=O)[nH]n23)c1 | inconclusive: 1.58 µM [inhibitor, full curve, poor fit] | 
30 | Cc1cccc(-c2nc3c4ccccc4nc(N4CCN(c5cccc(Cl)c5)CC4)n3n2)c1 | inactive | 
31 | N#C/C(=C\c1ccc(N2CCOCC2)o1)C(=O)NCC1CCCO1 (configuration not stated) | inconclusive: 7.94 µM [inhibitor, full curve, poor fit] | 
32 | CCc1cccc(C)c1NC(=O)c1ccc2c(c1)CCN2S(C)(=O)=O | inconclusive: 44.7 µM [inhibitor, partial curve, poor fit] | 
33 | CCOCCCn1c(=N)c(C(=O)NC2CCCCC2)cc2c(=O)n3ccccc3nc21 | inconclusive: 15.8 µM [inhibitor, single point] | 
34 | NC(=O)Cn1ccc(O)c(Cc2ccc(Cl)cc2Cl)c1=O | inactive | 
35 | COc1cc(OC)c(OC)cc1/C=C1\Oc2cc(OS(C)(=O)=O)ccc2C1=O | active: 11.2 µM | 
36 | COc1ccc(/C=C/C(=O)C23CC4CC(CC(C4)C2)C3)cc1CN1CCOCC1 | inconclusive: 44.7 µM [inhibitor, partial curve] | 
37 | Cc1coc2c1c(C)cc1oc(=O)c(CC(=O)N[C@@H](C)C(=O)O)c(C)c12 | inconclusive: 89.1 µM [inhibitor, single point] | 
38 | C=CCn1c(C(CC)CC)nc2ccccc21 | inconclusive: 70.8 µM [inhibitor, single point] | 
39 | Cc1cccc(N2CCN(C(=O)c3cccc(NC4=NC5CS(=O)(=O)CC5S4)c3)CC2)c1C (configuration not stated) | inconclusive: 89.1 µM [inhibitor, single point] | 
40 | COc1cccc(C(=O)NNc2c3ccccc3nc3ccccc23)c1 | inconclusive: 50.1 µM [inhibitor, partial curve] | 
41 | C=CCNC(=O)c1ccc(-c2nc(-c3ccc(Cl)c(Cl)c3)cs2)cc1 | inconclusive: 11.2 µM [inhibitor, full curve] | 
42 | O=[N+]([O-])c1ccc(O)c(/C=N/n2c(-c3ccccc3)n[nH]c2=S)c1 | inactive | 
43 | O=C(COC(=O)C12CC3CC(CC(C3)C1)C2)Nc1ccc2[nH]c(=O)[nH]c2c1 | inconclusive: 25.1 µM [inhibitor, full curve, poor fit] | 
44 | O=C(Cc1ccc(Br)cc1)N/N=C/c1ccc(-c2cccc(C(=O)O)c2)o1 | inconclusive: 39.8 µM [inhibitor, partial curve] | 
45 | NS(=O)(=O)c1ccc(CNC(=O)c2cc(-c3cccs3)nc3ccccc23)cc1 |  | inconclusive: -35.9% [inhibitor]
46 | CCOC(=O)C(=O)Nc1ccc(S(=O)(=O)Nc2ncccn2)cc1 | active: 89.1 µM | 

Row | SMILES | Potency | activity change, negative = inhibition
47 | COc1ccc(C2=C(C)C(N3CCN(C(=O)c4ccco4)CC3)=NS2(=O)=O)cc1 | active: 50.1 µM | 
48 | CN(C)c1cccc(C(=O)NCC2CCCO2)c1 (configuration not stated) | inconclusive: 89.1 µM [inhibitor, single point] | 
49 | COc1cccc(=O)c2c(C)n(C)c(C)c12 | active: 25.1 µM | 
50 | O=C(O)c1ccc(-n2c(-c3cc(C4CC4)[nH]n3)n[nH]c2=S)cc1 | inactive | 
51 | COCCCNc1nc2ccccc2nc1NS(=O)(=O)c1ccc(F)cc1 | inconclusive: 89.1 µM [inhibitor, single point] | 
52 | CCN(CC)CCNC(CC(=O)Nc1ccc(Cl)cc1Cl)C(=O)O (configuration not stated) | inconclusive: 89.1 µM [inhibitor, single point] | 
53 | COc1ccc(CNC(=O)C(c2ccc(C)o2)N(Cc2cccs2)C(=O)Cc2cccs2)cc1 (configuration not stated) | inconclusive: 12.6 µM [inhibitor, partial curve] | 
54 | Cc1cc(NC(=O)Nc2c[nH]c(=O)[nH]c2=O)ccc1Br | inconclusive: 28.2 µM [inhibitor, partial curve] | 
55 | CC(=O)OCC1=C(C(=O)O)N2C(=O)C(NC(=O)C(C)Cn3nc(C)c(Cl)c3C)C2SC1 (configuration not stated) | inconclusive: 10 µM [inhibitor, full curve] | 
56 | Cc1ccc(C(=O)N/N=C/c2ccc([N+](=O)[O-])s2)cc1 | active: 28.2 µM | 
57 | Cc1cccc(OCC(=O)NCC2CCCO2)c1C (configuration not stated) | inconclusive: 3.98 µM [inhibitor, partial curve, poor fit] | 
58 | CCCCC1CCC(C(=O)N2CC(=O)Nc3ccc(F)cc3C2c2ccc(F)cc2)CC1 (configuration not stated) | inconclusive: 3.55 µM [inhibitor, full curve, poor fit] | 
59 | CC(C)(C)c1ccc(OCc2ccc(C(=O)N/N=C/c3ccc(O)c(O)c3)cc2)cc1 | inconclusive: 1.12 µM [inhibitor, full curve, poor fit] | 
60 | CC(=O)Nc1ccc(NC(=O)COc2cccc3c2OC(C)(C)C3)cc1 | inconclusive: 100 µM [inhibitor, single point] | 
61 | Cc1ccc(C(NC(=O)C2CCCCC2)c2c(O)ccc3ccccc23)cc1 (configuration not stated) | inconclusive: 79.4 µM [inhibitor, single point] | 
62 | O=[N+]([O-])C(=c1ccc2c(c1)N1C3=C(CCCC3)CC3CCCCC31N=2)[N+](=O)[O-] (configuration not stated) | active: 39.8 µM | 
63 | Cc1[nH]c2c(Br)cccc2c1[C@H]1[C@@H](CC#N)C1(C)C | inconclusive: 89.1 µM [inhibitor, single point] | 
64 | O=C1NC(=O)/C(=C\c2ccccc2OCc2cccc([N+](=O)[O-])c2)N1 | inconclusive: 39.8 µM [inhibitor, full curve] | 
65 | Cn1cccc1-c1cc(C(=O)N/N=C/c2ccc(Cl)cc2)[nH]n1 |  | inconclusive: -50% [inhibitor]
66 | C=CCn1c(SCC(=O)Nc2ccc(-c3nc4ccc(C)cc4s3)cc2)nnc1-c1ccncc1 | inconclusive: 12.6 µM [inhibitor, partial curve] | 
67 | COc1cc(C)ccc1OCc1cc(C(=O)NCCN2CCOCC2)no1 | inconclusive: 5.01 µM [inhibitor, single point] | 

In a second layout: results already given.
Row,SMILES,Potency,"activity change, negative = inhibition"
9,CC(C)(C)n1c(O)c2ccc(C(=O)N=NC(=O)c3ccccc3)cc2c1O,"inconclusive: 8.91 µM [inhibitor, single point]",
38,C=CCn1c(C(CC)CC)nc2ccccc21,"inconclusive: 70.8 µM [inhibitor, single point]",
64,O=C1NC(=O)/C(=C\c2ccccc2OCc2cccc([N+](=O)[O-])c2)N1,"inconclusive: 39.8 µM [inhibitor, full curve]",
